# The list shows a part of the results.
# Legend:
# Experiment in all cases: glycan array binding signal (z-score within array); higher = stronger binding
# Details in all cases: glycan notation: IUPAC condensed, linker removed
# [1] = target: Fuc(a1-2)[GalNAc(a1-3)]Gal(b1-3)GlcNAc(b1-6)GalNAc
# Summary of the method: (§1)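 Columns mapping to the same glycan were averaged after glycan names were converted to IUPAC-condensed notation. The data come from 3228 arrays in the Consortium for Functional Glycomics database, limited to those with an available protein sequence. Binding is reported as a within-array Z-score averaged across arrays of one protein sequence and across linkers.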
# [2] = target: Fuc(a1-2)[GalNAc(a1-3)]Gal(b1-4)Glc
# Summary of the method: as §1
# [3] = target: Fuc(a1-2)[GalNAc(a1-3)]Gal(b1-4)GlcNAc
# Summary of the method: as §1
# [4] = target: Fuc(a1-2)[GalNAc(a1-3)]Gal(b1-4)GlcNAc(b1-2)Man
# Summary of the method: as §1
# [5] = target: Fuc(a1-2)[GalNAc(a1-3)]Gal(b1-4)GlcNAc(b1-2)Man(a1-3)[Fuc(a1-2)[GalNAc(a1-3)]Gal(b1-4)GlcNAc(b1-2)Man(a1-6)]Man(b1-4)GlcNAc(b1-4)GlcNAc
# Summary of the method: as §1
# [6] = target: Fuc(a1-2)[GalNAc(a1-3)]Gal(b1-4)GlcNAc(b1-2)Man(a1-3)[Fuc(a1-2)[GalNAc(a1-3)]Gal(b1-4)GlcNAc(b1-2)Man(a1-6)]Man(b1-4)GlcNAc(b1-4)[Fuc(a1-6)]GlcNAc
# Summary of the method: as §1
# [7] = target: Fuc(a1-2)[GalNAc(a1-3)]Gal(b1-4)GlcNAc(b1-3)Gal(b1-4)GlcNAc
# Summary of the method: as §1
# [8] = target: Fuc(a1-2)[GalNAc(a1-3)]Gal(b1-4)GlcNAc(b1-3)Gal(b1-4)GlcNAc(b1-3)Gal(b1-4)GlcNAc
# Summary of the method: as §1
# [9] = target: Fuc(a1-2)[GalNAc(a1-3)]Gal(b1-4)GlcNAc(b1-3)GalNAc
# Summary of the method: as §1
# [10] = target: Fuc(a1-2)[GalNAc(a1-3)]Gal(b1-4)GlcNAc(b1-3)[Fuc(a1-2)[GalNAc(a1-3)]Gal(b1-4)GlcNAc(b1-6)]GalNAc
# Summary of the method: as §1
# [11] = target: Fuc(a1-2)[GalNAc(a1-3)]Gal(b1-4)GlcNAc(b1-6)GalNAc
# Summary of the method: as §1
# [12] = target: Fuc(a1-2)[GalNAc(a1-3)]Gal(b1-4)[Fuc(a1-3)]GlcNAc
# Summary of the method: as §1
# [13] = target: Fuc(a1-2)[GalNAc(a1-3)]Gal(b1-4)[Fuc(a1-3)]GlcNAc(b1-3)GalNAc
# Summary of the method: as §1
# [14] = target: Fuc(a1-2)[GalNAc(a1-4)]Gal(b1-4)GlcNAc
# Summary of the method: as §1
# [15] = target: Fuc(a1-2)[GalNAc(b1-3)]Gal
# Summary of the method: as §1
# Fuc(a1-3)GlcNAc = target: Fuc(a1-3)GlcNAc
# Summary of the method: as §1
# [16] = target: Fuc(a1-3)[Gal(b1-4)]Glc6S
# Summary of the method: as §1
# [17] = target: Fuc(a1-3)[Gal(b1-4)]GlcNAc
# Summary of the method: as §1
# [18] = target: Fuc(a1-3)[Gal(b1-4)]GlcNAc(b1-2)Man
# Summary of the method: as §1
# [19] = target: Fuc(a1-3)[Gal(b1-4)]GlcNAc(b1-2)Man(a1-3)[Fuc(a1-3)[Gal(b1-4)]GlcNAc(b1-2)Man(a1-6)]Man(b1-4)GlcNAc(b1-4)GlcNAc
# Summary of the method: as §1
# [20] = target: Fuc(a1-3)[Gal(b1-4)]GlcNAc(b1-2)Man(a1-3)[Fuc(a1-3)[Gal(b1-4)]GlcNAc(b1-2)Man(a1-6)]Man(b1-4)GlcNAc(b1-4)[Fuc(a1-6)]GlcNAc
# Summary of the method: as §1
# [21] = target: Fuc(a1-3)[Gal(b1-4)]GlcNAc(b1-3)Gal(b1-3)[Fuc(a1-4)]GlcNAc
# Summary of the method: as §1
# [22] = target: Fuc(a1-3)[Gal(b1-4)]GlcNAc(b1-3)Gal(b1-4)[Fuc(a1-3)]GlcNAc
# Summary of the method: as §1
# [23] = target: Fuc(a1-3)[Gal(b1-4)]GlcNAc(b1-3)Gal(b1-4)[Fuc(a1-3)]GlcNAc(b1-3)Gal(b1-4)[Fuc(a1-3)]GlcNAc
# Summary of the method: as §1
# [24] = target: Fuc(a1-3)[Gal(b1-4)]GlcNAc(b1-3)GalNAc
# Summary of the method: as §1
# [25] = target: Fuc(a1-3)[Gal(b1-4)]GlcNAc(b1-6)GalNAc
# Summary of the method: as §1
# [26] = target: Fuc(a1-3)[Gal(b1-4)]GlcNAc(b1-6)[Gal(b1-3)GlcNAc(b1-3)]Gal(b1-4)Glc
# Summary of the method: as §1
# [27] = target: Fuc(a1-3)[Gal(b1-4)]GlcNAc6S
# Summary of the method: as §1
# [28] = target: Fuc(a1-3)[Gal3S(b1-4)]Glc
# Summary of the method: as §1
# [29] = target: Fuc(a1-3)[Gal3S(b1-4)]GlcNAc
# Summary of the method: as §1
# [30] = target: Fuc(a1-3)[Gal3S(b1-4)]GlcNAc6S
# Summary of the method: as §1
# [31] = target: Fuc(a1-3)[GalNAc(b1-4)]GlcNAc
# Summary of the method: as §1
# [32] = target: Fuc(a1-3)[GalNAc(b1-4)]GlcNAc6S
# Summary of the method: as §1
# Fuc(a1-4)GlcNAc = target: Fuc(a1-4)GlcNAc
# Summary of the method: as §1
# Fuc(b1-3)GlcNAc = target: Fuc(b1-3)GlcNAc
# Summary of the method: as §1
# Gal(a1-2)Gal = target: Gal(a1-2)Gal
# Summary of the method: as §1
# Gal(a1-3)Gal = target: Gal(a1-3)Gal
# Summary of the method: as §1
# Gal(a1-3)Gal(b1-3)GlcNAc = target: Gal(a1-3)Gal(b1-3)GlcNAc
# Summary of the method: as §1
# [33] = target: Gal(a1-3)Gal(b1-3)GlcNAc(b1-2)Man
# Summary of the method: as §1
# [34] = target: Gal(a1-3)Gal(b1-3)GlcNAc(b1-2)Man(a1-3)[Gal(a1-3)Gal(b1-3)GlcNAc(b1-2)Man(a1-6)]Man(b1-4)GlcNAc(b1-4)GlcNAc
# Summary of the method: as §1
# [35] = target: Gal(a1-3)Gal(b1-3)GlcNAc(b1-3)GalNAc
# Summary of the method: as §1
# [36] = target: Gal(a1-3)Gal(b1-3)GlcNAc(b1-6)GalNAc
# Summary of the method: as §1
# [37] = target: Gal(a1-3)Gal(b1-3)[Fuc(a1-4)]GlcNAc(b1-2)Man(a1-3)[Gal(a1-3)Gal(b1-3)[Fuc(a1-4)]GlcNAc(b1-2)Man(a1-6)]Man(b1-4)GlcNAc(b1-4)GlcNAc
# Summary of the method: as §1
# Gal(a1-3)Gal(b1-4)Glc = target: Gal(a1-3)Gal(b1-4)Glc
# Summary of the method: as §1
# Gal(a1-3)Gal(b1-4)GlcNAc = target: Gal(a1-3)Gal(b1-4)GlcNAc
# Summary of the method: as §1
binder,measurement,setting,value
Clone646PsrP (Streptococcus pneumoniae) (protein) MDHHHHHHHHASENLYFQGAPAINASLNIAKSETKVYTGEGVDSVYRVPIYYKLKVTNDGSKLTFTYTVTYVNPKTNDLGNISSMRPGYSIYNSGTSTQTMLTLGSDLGKPSGVKNYITDKNGRQVLSYNTSTMTTQGSGYTWGNGAQMNGFFAKKGYGLTSSWTVPITGTDTSFTFTPYAARTDRIGINYFNGGGKVVESSTTSQSLSQSKSLSVSAS,glycan array binding signal (z-score),[1],-0.849
same,glycan array binding signal (z-score),[2],-0.855
same,glycan array binding signal (z-score),[3],-0.709
same,glycan array binding signal (z-score),[4],-0.363
same,glycan array binding signal (z-score),[5],-0.839
same,glycan array binding signal (z-score),[6],0.318
same,glycan array binding signal (z-score),[7],-0.638
same,glycan array binding signal (z-score),[8],-0.2
same,glycan array binding signal (z-score),[9],0.378
same,glycan array binding signal (z-score),[10],0.544
same,glycan array binding signal (z-score),[11],-0.917
same,glycan array binding signal (z-score),[12],0.864
same,glycan array binding signal (z-score),[13],0.478
same,glycan array binding signal (z-score),[14],-0.73
same,glycan array binding signal (z-score),[15],-0.798
same,glycan array binding signal (z-score),Fuc(a1-3)GlcNAc,0.18
same,glycan array binding signal (z-score),[16],2.27
same,glycan array binding signal (z-score),[17],0.303
same,glycan array binding signal (z-score),[18],-0.231
same,glycan array binding signal (z-score),[19],-0.096
same,glycan array binding signal (z-score),[20],-0.573
same,glycan array binding signal (z-score),[21],-0.683
same,glycan array binding signal (z-score),[22],-0.133
same,glycan array binding signal (z-score),[23],-0.6
same,glycan array binding signal (z-score),[24],0.014
same,glycan array binding signal (z-score),[25],0.039
same,glycan array binding signal (z-score),[26],-0.007
same,glycan array binding signal (z-score),[27],0.684
same,glycan array binding signal (z-score),[28],-0.178
same,glycan array binding signal (z-score),[29],1.3
same,glycan array binding signal (z-score),[30],-0.227
same,glycan array binding signal (z-score),[31],0.979
same,glycan array binding signal (z-score),[32],0.395
same,glycan array binding signal (z-score),Fuc(a1-4)GlcNAc,0.452
same,glycan array binding signal (z-score),Fuc(b1-3)GlcNAc,1.31
same,glycan array binding signal (z-score),Gal(a1-2)Gal,1.52
same,glycan array binding signal (z-score),Gal(a1-3)Gal,-0.601
same,glycan array binding signal (z-score),Gal(a1-3)Gal(b1-3)GlcNAc,-0.923
same,glycan array binding signal (z-score),[33],-0.341
same,glycan array binding signal (z-score),[34],0.272
same,glycan array binding signal (z-score),[35],1.68
same,glycan array binding signal (z-score),[36],-0.9
same,glycan array binding signal (z-score),[37],-0.373
same,glycan array binding signal (z-score),Gal(a1-3)Gal(b1-4)Glc,-0.512
same,glycan array binding signal (z-score),Gal(a1-3)Gal(b1-4)GlcNAc,-0.743

# Some of the entries so far, tab-delimited.
binder	measurement	setting	value
Clone646PsrP (Streptococcus pneumoniae) (protein) MDHHHHHHHHASENLYFQGAPAINASLNIAKSETKVYTGEGVDSVYRVPIYYKLKVTNDGSKLTFTYTVTYVNPKTNDLGNISSMRPGYSIYNSGTSTQTMLTLGSDLGKPSGVKNYITDKNGRQVLSYNTSTMTTQGSGYTWGNGAQMNGFFAKKGYGLTSSWTVPITGTDTSFTFTPYAARTDRIGINYFNGGGKVVESSTTSQSLSQSKSLSVSAS	glycan array binding signal (z-score)	[4]	-0.363
same	glycan array binding signal (z-score)	[5]	-0.839
same	glycan array binding signal (z-score)	[6]	0.318
same	glycan array binding signal (z-score)	[7]	-0.638

# Source: the supplement of paper PMC8728848
